# Values quoted from earlier work as cited in patent US9248104B2 (priority 2006, dated 2016).
# Conditions: from Physician's Desk Reference
compound,measurement,value
COc1cc2c(cc1OC)C(=O)C(CC1CCN(Cc3ccccc3)CC1)C2 (stereo not shown) [donepezil],elimination half life,approximately 70 hours
